Drawing on patent US9260534B2 (priority 2010, dated 2016), this text covers crude mass for one substance.

The nature of the series: general procedure: Fmoc solid-phase peptide synthesis; Rink-amide resin; HBTU-HOBt. The note with it: whole synthesis, scale 0.25 mmol.

In the case of [Cys^21]Exendin-4, the crude mass was found to be 719 mg.
